{"source": "the supplement of paper PMC4635364", "key": {"[1]": {"tested_on": "ReNCell VM", "experiment": "neuronal differentiation score (DCX+ cell fraction vs untreated, manual image score) (score (-3 to 3)); higher = more neuronal differentiation", "details": "2 uM, 2 weeks"}, "[2]": {"tested_on": "ReNCell VM", "experiment": "dopaminergic neuron differentiation score (TH+ cell fraction vs untreated, manual image score) (score (0 to 3)); higher = more TH+ dopaminergic neuron differentiation", "details": "2 uM, 4 weeks, BDNF 10 ng/ml + GDNF 10 ng/ml"}}, "note": "Where a name gives a salt, the structure may show the parent alone. The list shows a part of the results. This data set is noisy: repeats of one test often differ as much as different tests do.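 Human fetal ventral-midbrain neural progenitor line ReNCell VM, differentiated without mitogens. Images stained for doublecortin (early neurons) or tyrosine hydroxylase (dopaminergic neurons) were scored by blinded raters against untreated wells (0 = no change). Repeats and both raters were averaged, and compounds averaging 2 or higher were picked as hits for retesting.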 *1 amine or outer side, *2 acyl side, *3 side chain or, on linkers, in order; H or OH if unused. Where a SMILES comes first, the peptide text is derived from it. [ ]: non-standard residue; d: D form. The star is where a group is joined. ξ: configuration not given here. X4 = O=C([C@H](N[*:1])C1CCC(O)CC1)[*:2]; X6 = O=C(C(N[*:1])C1CCC(O)C(Cl)C1)[*:2]; X5 = O=C(C(N[*:1])C1CCC(O)CC1)[*:2]; aThr = C[C@H](O)[C@H](N)C(=O)O; dOrn = NCCC[C@@H](N)C(=O)O; X3 = CCC/C=C\\C=C/C(=O)*; ξN = NC(=O)CC(N)C(=O)O", "data": [{"smiles": "Cn1ccnc1", "note": "[1-Methylimidazole]", "values": [{"measurement": "neuronal differentiation score", "setting": "[1]; library: LOPAC", "value": "inactive: 0"}, {"measurement": "dopaminergic neuron differentiation score", "setting": "[2]; library: LOPAC", "value": "inactive: 0"}]}, {"smiles": "CNCCCCc1cnc(C)c2[nH]c3ccccc3c12", "note": "[brevicarine]", "values": [{"measurement": "neuronal differentiation score", "setting": "[1]; library: Natural", "value": "inactive: 0"}, {"measurement": "dopaminergic neuron differentiation score", "setting": "[2]; library: Natural", "value": "inactive: 0"}]}, {"smiles": "OCc1ccccc1O[C@@H]1O[C@H](CO)[C@@H](O)[C@H](O)[C@H]1O", "note": "[Salicin]", "values": [{"measurement": "neuronal differentiation score", "setting": "[1]; library: Phytochemical", "value": "inactive: 0"}, {"measurement": "dopaminergic neuron differentiation score", "setting": "[2]; library: Phytochemical", "value": "inactive: 0"}]}, {"smiles": "COc1ccc(Br)cc1S(=O)(=O)NC(=O)/C=C/c1ccccc1Cc1ccc2ccccc2c1", "values": [{"measurement": "neuronal differentiation score", "setting": "[1]; library: Tocriscreen", "value": "inactive: 0"}, {"measurement": "dopaminergic neuron differentiation score", "setting": "[2]; library: Tocriscreen", "value": "inactive: 0"}]}, {"smiles": "C=C1CCC2C(CC2(C)C)C(=O)CCC1O", "note": "(stereo not given)", "values": [{"measurement": "neuronal differentiation score", "setting": "[1]; library: Spectrum", "value": "inactive: 0"}, {"measurement": "dopaminergic neuron differentiation score", "setting": "[2]; library: Spectrum", "value": "inactive: 0"}]}, {"smiles": "CCC/C=C\\C=C/C(=O)N[C@@H](CC(N)=O)C(=O)NC(CC(N)=O)C(=O)N[C@@H](C(=O)N[C@H](CCCN)C(=O)N[C@@H](C(=O)N[C@@H](C(=O)N[C@@H](C(=O)N[C@H](C(=O)N[C@@H](Cc1ccccc1)C(=O)N[C@H](CCCN)C(=O)NC(C(=O)N[C@H](C(=O)NC(C(=O)NCC(=O)N[C@@H](CC(C)C)C(=O)N[C@H](C)C(=O)NC(C(=O)O)C1CCC(O)C(Cl)C1)C1CCC(O)CC1)[C@H](C)O)C1CCC(O)CC1)[C@H](C)O)C1CCC(O)CC1)C1CCC(O)CC1)[C@H](C)O)C1CCC(O)CC1", "note": "(stereo not given in full) [RAMOPLANIN [A2 shown; 2mM]] (X3-N[ξN][X4][dOrn][dT][X4][X4][aThr]F[dOrn][X5][aThr][X5]GL[dA][X6]-OH)", "values": [{"measurement": "neuronal differentiation score", "setting": "[1]; library: Spectrum", "value": "inactive: 0"}, {"measurement": "dopaminergic neuron differentiation score", "setting": "[2]; library: Spectrum", "value": "inactive: 0"}]}, {"smiles": "CCCCCCNC(=O)n1cc(F)c(=O)[nH]c1=O", "values": [{"measurement": "neuronal differentiation score", "setting": "[1]; library: Spectrum", "value": "inactive: 0"}, {"measurement": "dopaminergic neuron differentiation score", "setting": "[2]; library: Spectrum", "value": "inactive: 0"}]}, {"smiles": "NC(=O)N1c2ccccc2CC(=O)c2ccccc21", "note": "[Oxcarbazepine]", "values": [{"measurement": "neuronal differentiation score", "setting": "[1]; library: Prestwick", "value": "inactive: 0"}, {"measurement": "dopaminergic neuron differentiation score", "setting": "[2]; library: Prestwick", "value": "inactive: 0"}]}, {"smiles": "O=C1N(c2ccccc2)c2ccccc2C1(Cc1ccncc1)Cc1ccncc1", "note": "[Linopirdine dihydrochloride]", "values": [{"measurement": "neuronal differentiation score", "setting": "[1]; library: Tocriscreen", "value": "inactive: 0"}, {"measurement": "dopaminergic neuron differentiation score", "setting": "[2]; library: Tocriscreen", "value": "inactive: 0"}]}, {"smiles": "CN(C)CCCN1c2ccccc2Sc2ccc(C(F)(F)F)cc21", "values": [{"measurement": "neuronal differentiation score", "setting": "[1]; library: Spectrum", "value": "inactive: 0"}, {"measurement": "dopaminergic neuron differentiation score", "setting": "[2]; library: Spectrum", "value": "inactive: 0"}]}, {"smiles": "C=C1CC[C@H]2[C@@](C)(CCC[C@@]2(C)C(=O)O)[C@@H]1CCc1ccoc1", "note": "[daniellic acid]", "values": [{"measurement": "neuronal differentiation score", "setting": "[1]; library: Natural", "value": "inactive: 0"}, {"measurement": "dopaminergic neuron differentiation score", "setting": "[2]; library: Natural", "value": "inactive: 0"}]}, {"smiles": "CC(C)c1ccccc1S(=O)(=O)c1cc(N)c2ncccc2c1[N+](=O)[O-]", "values": [{"measurement": "neuronal differentiation score", "setting": "[1]; library: Tocriscreen", "value": "inactive: 0"}, {"measurement": "dopaminergic neuron differentiation score", "setting": "[2]; library: Tocriscreen", "value": "inactive: 0"}]}, {"smiles": "CC(C)(C)CC(C)(C)c1ccc(OCCOCC[N+](C)(C)Cc2ccccc2)cc1", "values": [{"measurement": "neuronal differentiation score", "setting": "[1]; library: Spectrum", "value": "inactive: 0"}, {"measurement": "dopaminergic neuron differentiation score", "setting": "[2]; library: Spectrum", "value": "inactive: 0"}]}, {"smiles": "CC(C)CCC[C@@H](C)[C@H]1CC[C@H]2[C@@H]3CC[C@H]4CC(=O)CC[C@]4(C)[C@H]3CC[C@]12C", "values": [{"measurement": "neuronal differentiation score", "setting": "[1]; library: Spectrum", "value": "inactive: 0"}, {"measurement": "dopaminergic neuron differentiation score", "setting": "[2]; library: Spectrum", "value": "inactive: 0"}]}, {"smiles": "COc1c(C2=CC(=O)N(C)C2=O)c2c(n1C)C(=O)c1ccccc1C2=O", "values": [{"measurement": "neuronal differentiation score", "setting": "[1]; library: Natural", "value": "inactive: 0"}, {"measurement": "dopaminergic neuron differentiation score", "setting": "[2]; library: Natural", "value": "inactive: 0"}]}, {"smiles": "CCC(=O)O[C@H]1[C@H](O[C@@H]2[C@@H](C)[C@H](O[C@H]3C[C@@](C)(OC)[C@@H](O)[C@H](C)O3)[C@@H](C)C(=O)O[C@H](CC)[C@@](C)(O)[C@H](O)[C@@H](C)C(=O)[C@H](C)C[C@@]2(C)O)O[C@H](C)C[C@@H]1N(C)C", "values": [{"measurement": "neuronal differentiation score", "setting": "[1]; library: Spectrum", "value": "inactive: 0"}, {"measurement": "dopaminergic neuron differentiation score", "setting": "[2]; library: Spectrum", "value": "inactive: 0"}]}, {"smiles": "O=C(O)c1cc(/N=N/c2ccc(O)c(C(=O)O)c2)ccc1O", "values": [{"measurement": "neuronal differentiation score", "setting": "[1]; library: Spectrum", "value": "inactive: 0"}, {"measurement": "dopaminergic neuron differentiation score", "setting": "[2]; library: Spectrum", "value": "inactive: 0"}]}, {"smiles": "CN(C)CCn1nnnc1SCC1=C(C(=O)O)N2C(=O)[C@@H](NC(=O)Cc3csc(N)n3)[C@H]2SC1", "note": "[Cefotiam hydrochloride]", "values": [{"measurement": "neuronal differentiation score", "setting": "[1]; library: Prestwick", "value": "inactive: 0"}, {"measurement": "dopaminergic neuron differentiation score", "setting": "[2]; library: Prestwick", "value": "inactive: 0"}]}, {"smiles": "NNC(=O)c1ccncc1", "values": [{"measurement": "neuronal differentiation score", "setting": "[1]; library: Spectrum", "value": "inactive: 0"}, {"measurement": "dopaminergic neuron differentiation score", "setting": "[2]; library: Spectrum", "value": "inactive: 0"}]}, {"smiles": "COc1c(O)cc2c(c1O)[C@@H]1O[C@H](CO)[C@@H](O)[C@H](O)[C@H]1OC2=O", "note": "[Bergenin monohydrate]", "values": [{"measurement": "neuronal differentiation score", "setting": "[1]; library: Phytochemical", "value": "inactive: 0"}, {"measurement": "dopaminergic neuron differentiation score", "setting": "[2]; library: Phytochemical", "value": "inactive: 0"}]}, {"smiles": "CC(C)[C@H](NC(=O)[C@H](CC(=O)O)NC(=O)[C@H](CCCCN)NC(=O)[C@@H](N)CCCN=C(N)N)C(=O)N[C@@H](Cc1ccc(O)cc1)C(=O)O", "note": "(H-RKDVY-OH)", "values": [{"measurement": "neuronal differentiation score", "setting": "[1]; library: Spectrum", "value": "inactive: 0"}, {"measurement": "dopaminergic neuron differentiation score", "setting": "[2]; library: Spectrum", "value": "inactive: 0"}]}, {"smiles": "Nc1ccn([C@H]2CC[C@@H](CO)O2)c(=O)n1", "note": "[2',3'-dideoxycytidine]", "values": [{"measurement": "neuronal differentiation score", "setting": "[1]; library: LOPAC", "value": "inactive: 0"}, {"measurement": "dopaminergic neuron differentiation score", "setting": "[2]; library: LOPAC", "value": "inactive: 0"}]}, {"smiles": "CN(C)CCC(c1ccc(Cl)cc1)c1ccccn1", "note": "(single isomer, unassigned; (+)) [(+)-Chlorpheniramine maleate]", "values": [{"measurement": "neuronal differentiation score", "setting": "[1]; library: LOPAC", "value": "inactive: 0"}, {"measurement": "dopaminergic neuron differentiation score", "setting": "[2]; library: LOPAC", "value": "inactive: 0"}]}, {"smiles": "NCCS(=O)(=O)O", "note": "[Taurine]", "values": [{"measurement": "neuronal differentiation score", "setting": "[1]; library: LOPAC", "value": "inactive: 0"}, {"measurement": "dopaminergic neuron differentiation score", "setting": "[2]; library: LOPAC", "value": "inactive: 0"}]}, {"smiles": "Cc1cc(-n2c(=O)[nH]c(=O)n(C)c2=O)ccc1Oc1ccc(SC(F)(F)F)cc1", "values": [{"measurement": "neuronal differentiation score", "setting": "[1]; library: Spectrum", "value": "inactive: 0"}, {"measurement": "dopaminergic neuron differentiation score", "setting": "[2]; library: Spectrum", "value": "inactive: 0"}]}]}
